{"source": "patent US10945989B2", "about": "“Perinatal treatment with a flavonoid agonist of the TrkB receptor for BDNF rescues neurogenesis and behavior in the Ts65Dn mouse model of DS” (ALMA MATER STUDIORUM—Universita' di Bologna, priority 2017, dated 2021)", "tested_on": "Ts65Dn and euploid mice", "assay": "Morris Water Maze, learning phase", "type": "in vivo, mouse", "protocol": "Euploid and Ts65Dn mice received a daily subcutaneous injection (at 9-10 am) of 7,8-DHF (5.0 mg/kg in vehicle) or vehicle from postnatal day 3 (P3) to postnatal day P45-P50. […] These mice will be called here P45 mice. Mice were behaviorally tested in the 6 days that preceded the day of sacrifice (FIG. 2B).\nMice were trained in the MWM task to locate a hidden escape platform in a circular pool, using a previously used protocol (Stagni et al., 2016), that was altogether based on a published protocol (Vorhees and Williams, 2006). The apparatus consisted of a large circular water tank (1.00 m diameter, 50 cm height) with a transparent round escape platform (10 cm^2). The pool was virtually divided into four equal quadrants identified as northeast, northwest, southeast, and southwest. The tank was filled with tap water at a temperature of 22±1.0° C. Mice are more prone to undergo hypothermia than rats and in the MWM hypothermia may cause a reduction in swimming speed (livonen et al., 2003). […] For the learning phase, we evaluated the latency to find the hidden platform, time in periphery, percentage of time in periphery, path length, proximity to the platform, and swimming speed. Retention was assessed with one trial (probe trial), on the sixth day, 24 h after the last acquisition trial, using the same starting point for all mice. […]", "data": [{"smiles": "O=c1cc(-c2ccccc2)oc2c(O)c(O)ccc12", "note": "[7,8-DHF, 7,8-dihydroxyflavone]", "values": [{"measurement": "swimming speed (learning phase)", "setting": "Ts65Dn mice, similar to euploid on days 4 and 5", "result": "reduced speed in comparison with untreated euploid mice on days 1, 2, and 3"}, {"measurement": "swimming speed (learning phase)", "setting": "euploid mice, similar speed on days 2-5", "result": "reduced speed in comparison with untreated euploid mice on day 1"}]}]}
